From patent US20100016421A1, “METHODS FOR DETERMINING SENSITIVITY TO AMINOFLAVONES” (priority 2008, published 2010)
pIC50: −log10 of the molar value.

Key:
[1] = tested on: MDA-MB-231; assay: MTT assay, MDA-MB-231 breast cancer cell line; assay type: cell-based; details: Homo sapiens; SAHA in MDA-MB-231
Experimental: The breast cancer cell lines shown in Table 2 were screened to determine the localization of the aryl hydrocarbon receptor (AhR) in accordance with the techniques discussed above. MTT assays were conducted to measure cell death on various breast cancer cell lines.
(§1) As shown below in Table 4, the genetic profile of 11 breast cancer cell lines was determined and each cell line was tested to determine the 50% inhibitory concentration (IC50) of aminoflavone. The inhibitory concentration 50% were determined by MTT assay and following the NCI DTP in vitro testing procedures (http://dtp.nci.nih.gov/branches/btb/ivclsp.html). Three independent MTT in vitro tumor cell growth inhibition experiments were conducted and a mean IC50 value generated as shown in Table 4.
(§2) Combination studies were performed according to the method by Chou and Talalay (see Chou, T. C., and Talalay, P. Quantitative analysis of dose-effect relationships: The combine effects of multiple drugs or enzyme inhibitors, Adv. Enzyme Regul., 22:27-55, 1984) at the fixed IC50 ratio by employing a range of 8 concentrations for each drug and determining growth by MTT assay. In one case, synergism of two agents exists if the combination indices at the effective (ED) doses 50, 75 or 90% are below 1, if they are 1, drugs are additive; above 1, drugs are antagonistic.

[2] = tested on: Hs578t; assay: MTT assay, Hs578t breast cancer cell line; assay type: cell-based; details: Homo sapiens, Hs-578T; SAHA in Hs578T
Experimental: as §1, §2

O=C(CCCCCCC(=O)Nc1ccccc1)NO [SAHA, suberoylanilide hydroxamic acid]
pIC50 [1]: 5.60
pIC50 [2]: 5.10
